This note sets out measurements from PMC7375240, “Covalent Inhibitors Allosterically Block the Activation of Rho Family Proteins and Suppress Cancer Cell Invasion” (Advanced Science, 2020).

By UniProt entry, the sequences of proteins in these tests, tags left out. Residues count along the entry.
UniProt P60953: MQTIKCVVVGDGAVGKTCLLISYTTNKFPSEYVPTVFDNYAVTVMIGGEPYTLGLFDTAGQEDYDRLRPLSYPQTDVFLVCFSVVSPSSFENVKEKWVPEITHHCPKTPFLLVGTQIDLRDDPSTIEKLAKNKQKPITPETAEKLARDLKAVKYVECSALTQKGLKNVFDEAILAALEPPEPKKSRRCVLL
UniProt Q15811, residues 1227-1571: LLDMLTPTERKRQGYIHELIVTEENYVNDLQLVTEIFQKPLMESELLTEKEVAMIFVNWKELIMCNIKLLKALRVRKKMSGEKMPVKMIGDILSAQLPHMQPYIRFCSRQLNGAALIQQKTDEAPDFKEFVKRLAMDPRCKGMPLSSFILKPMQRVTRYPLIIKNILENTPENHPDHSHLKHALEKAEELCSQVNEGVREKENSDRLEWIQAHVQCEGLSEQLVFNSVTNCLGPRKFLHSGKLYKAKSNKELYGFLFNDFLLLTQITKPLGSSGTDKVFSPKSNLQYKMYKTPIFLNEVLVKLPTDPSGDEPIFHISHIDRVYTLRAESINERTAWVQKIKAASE

For the test, the target named is Cdc42 (human) (UniProt P60953). Kind of test: pull-down; (His)6-tagged GTPase held on nickel beads, 2 µg GST-tagged partner added; 20 mM HEPES pH 7.4, 150 mM NaCl, 5 mM MgCl2, 40 mM imidazole, 4 °C, 1 h; GST-tagged protein detected by anti-GST western blot; samples without effect of DC-Rhoin; both purified. On the technique in general: Immunoblotting shows a protein as a band on a membrane.

No constants are given. Whether binding was seen depends on the method and setting. Some entries that bind do so weakly or less than the wild type.

As to “intersectin1 (residues 1227-1571) (from UniProt Q15811 1227-1571) (domain or fragment)”, the binding entry is given as “binds”.
